Data on one molecule can be found in patent US20090088578A1, “NUCLEAR MAGNETIC RESONANCE IMAGING OF SELECTIVE SMALL MOLECULE DRUGS AS CONTRAST AGENTS” (priority 2007, published 2009).

SMILES strings stand for the structures.

The data set is described as follows: Frequency-selective saturation transfer MR imaging of chloroquine in phantoms (magnetic coupling to water protons).

Turning to `CCN(CC)CCCC(C)Nc1ccnc2cc(Cl)ccc12` (centres unmarked) [Chloroquine, chloroquine], the “concentration to which chloroquine coupling to free water was demonstrable” value (20% BSA cross-linked phantoms, single targeted saturation pulse train of 256 ms, saturation at 1.15 ppm, GE 4T) is on record as less than 1 mM. For the same molecule, the “chloroquine coupling to free water, dependence on macromolecules” value (phantoms with and without BSA) is reported as “only seen in the presence of macromolecules (BSA)”.
